At least one compound was matched to its structure with a doubt left.
Tests used:
[1] = Small angle x-ray diffraction of cholesterol-enriched POPC model membranes, cholesterol domain peak intensity (Example 9); type: physicochemical; details: drug-to-phospholipid mole ratio 1:30
Experimental: The fatty acid stock solutions were stored at −20° C. until use. […] Samples were shell-dried under nitrogen gas and placed under vacuum for 3 hours to remove residual solvent at room temperature. After desiccation, each sample was resuspended in saline buffer (0.5 mM HEPES, 154 mM NaCl, pH 7.3) to yield a final phospholipid concentration of 2.5 mg/mL. Lipid suspensions were then vortexed for 3 minutes at ambient temperature to form MLVs. Membrane lipid vesicles were oriented for x-ray diffraction analysis as described by others (e.g., Herbette et al., Biophys. […] Briefly, a 100 μL aliquot of each MLV preparation (containing 250 μg MLV) was transferred to a Lucite® sedimentation cell fitted with an aluminum foil substrate designed to collect MLVs into a single membrane pellet upon centrifugation. […] After centrifugal orientation, sample supernatants were aspirated and aluminum foil substrates, each supporting a single membrane pellet, were removed from the sedimentation cells. […] Differences between groups were analyzed using the two-tailed, Student's t-test (for comparisons between only two groups) or ANOVA followed by Dunnett or Student-Newman-Keuls multiple comparisons post-hoc analysis (for comparisons between three or more groups). […]

[2] = tested on: sdLDL from plasma of healthy volunteers; assay: Time-dependent sdLDL oxidation, MDA formation over 4 hours (Example 13); type: biochemical, human; details: each at 10 μM, 10 μM CuSO4
Experimental: sdLDL was isolated from the plasma of healthy volunteers by iodixanol density gradient centrifugation and adjusted to a final apolipoprotein concentration of 2 mg/mL. Sample aliquots (100 μg apolipoprotein) were incubated with EPA, DHA, or EPA+DHA (each at 10 μM) for 30 minutes at 37° C. and then treated with 10 μM CuSO4 to initiate lipid oxidation. sdLDL oxidation was measured spectrophotometrically as a function of malondialdehyde (MDA) formation at various intervals over 4 hours. Vitamin E was also tested as a positive control. Experiments were conducted in triplicate and reported as mean±SD.

human sdLDL = assay: Copper-induced sdLDL oxidation, TBARS (Example 7); type: biochemical; details: 10 μM; 1 hour
Experimental: (§1) An experiment to study the antioxidant effect of EPA in LDL and small dense […] performed. […] Fenofibrate, gemfibrozil, and niacin were purchased from Sigma-Aldrich. […] Vitamin E was also incubated with sample aliquots as a positive control.

[3] = tested on: human LDL (unfractionated); assay: Copper-induced unfractionated LDL oxidation, TBARS 1 hr (Example 7); type: biochemical; details: 10 μM
Experimental: as §1

For CC/C=C\C/C=C\C/C=C\C/C=C\C/C=C\C/C=C\CCC(=O)O [DHA, docosahexaenoic acid], the “effect on cholesterol domains / domain size” value [1] was “did not reduce cholesterol domains”, the MDA levels [2] was 4.7 ± 0.1 µM and the “reduction in sdLDL oxidation (MDA levels)” value [2] was 51%.

For CC/C=C\C/C=C\C/C=C\C/C=C\C/C=C\CCCCCC(=O)O [DPA, docosapentaenoic acid], the “effect on cholesterol domains / domain size” value [1] was “did not reduce domains”.

In the case of CC(C)OC(=O)C(C)(C)Oc1ccc(C(=O)c2ccc(Cl)cc2)cc1 [fenofibrate], the “effect on sdLDL oxidation as compared to vehicle-treated controls” value (human sdLDL) was “no significant effect” and the “effect on unfractionated LDL oxidation as compared to vehicle-treated controls” value [3] was “no significant effect”.

Reference: US20200237700A1, “METHODS OF REDUCING OR PREVENTING OXIDATION OF SMALL DENSE LDL OR MEMBRANE POLYUNSATURATED FATTY ACIDS” (Amarin Pharmaceuticals Ireland Limited, priority 2015, published 2020)
